{
  "sequences": {"note": "Amino acid sequences for entries named in this document (tags omitted). A change or cut given only in a name is not applied to a line headed by its entry.", "UniProt Q00839, whole entry, looked up": "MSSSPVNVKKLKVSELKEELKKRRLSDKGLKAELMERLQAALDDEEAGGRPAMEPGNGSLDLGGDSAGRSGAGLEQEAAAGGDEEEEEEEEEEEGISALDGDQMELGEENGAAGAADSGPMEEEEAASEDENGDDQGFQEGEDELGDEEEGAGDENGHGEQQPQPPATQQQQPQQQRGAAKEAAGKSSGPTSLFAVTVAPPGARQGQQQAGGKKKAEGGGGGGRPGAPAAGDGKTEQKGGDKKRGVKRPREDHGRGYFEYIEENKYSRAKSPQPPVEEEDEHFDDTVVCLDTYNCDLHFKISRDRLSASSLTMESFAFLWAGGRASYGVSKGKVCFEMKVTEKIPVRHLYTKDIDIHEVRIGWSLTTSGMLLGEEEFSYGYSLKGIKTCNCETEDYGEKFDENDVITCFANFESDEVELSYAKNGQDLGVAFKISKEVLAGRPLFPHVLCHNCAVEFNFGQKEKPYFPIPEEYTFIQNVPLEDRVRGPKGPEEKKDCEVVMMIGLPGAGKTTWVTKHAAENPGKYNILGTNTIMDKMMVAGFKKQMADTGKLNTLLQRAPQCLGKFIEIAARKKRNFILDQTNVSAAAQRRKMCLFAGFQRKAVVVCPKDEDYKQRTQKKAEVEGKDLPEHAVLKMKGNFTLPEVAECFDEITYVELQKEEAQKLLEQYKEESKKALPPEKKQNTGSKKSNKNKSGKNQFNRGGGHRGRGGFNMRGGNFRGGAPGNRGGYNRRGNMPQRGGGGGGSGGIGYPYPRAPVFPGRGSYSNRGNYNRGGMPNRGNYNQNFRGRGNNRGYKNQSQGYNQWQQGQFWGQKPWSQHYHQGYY", "UniProt Q15011": "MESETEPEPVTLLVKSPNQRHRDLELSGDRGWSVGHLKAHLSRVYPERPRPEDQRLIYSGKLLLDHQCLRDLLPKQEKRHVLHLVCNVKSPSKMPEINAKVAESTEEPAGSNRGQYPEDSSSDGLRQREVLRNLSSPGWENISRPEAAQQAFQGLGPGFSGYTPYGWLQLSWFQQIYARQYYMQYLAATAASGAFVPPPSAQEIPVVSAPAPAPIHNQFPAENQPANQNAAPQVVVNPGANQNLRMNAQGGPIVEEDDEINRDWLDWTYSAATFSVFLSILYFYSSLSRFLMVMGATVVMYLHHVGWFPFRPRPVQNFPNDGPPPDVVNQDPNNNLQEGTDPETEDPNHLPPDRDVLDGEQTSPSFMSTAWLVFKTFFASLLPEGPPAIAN", "UniProt Q9BW72": "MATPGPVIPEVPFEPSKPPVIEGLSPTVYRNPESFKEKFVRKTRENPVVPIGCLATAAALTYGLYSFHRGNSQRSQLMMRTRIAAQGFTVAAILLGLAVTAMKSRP", "UniProt P13747, whole entry, looked up": "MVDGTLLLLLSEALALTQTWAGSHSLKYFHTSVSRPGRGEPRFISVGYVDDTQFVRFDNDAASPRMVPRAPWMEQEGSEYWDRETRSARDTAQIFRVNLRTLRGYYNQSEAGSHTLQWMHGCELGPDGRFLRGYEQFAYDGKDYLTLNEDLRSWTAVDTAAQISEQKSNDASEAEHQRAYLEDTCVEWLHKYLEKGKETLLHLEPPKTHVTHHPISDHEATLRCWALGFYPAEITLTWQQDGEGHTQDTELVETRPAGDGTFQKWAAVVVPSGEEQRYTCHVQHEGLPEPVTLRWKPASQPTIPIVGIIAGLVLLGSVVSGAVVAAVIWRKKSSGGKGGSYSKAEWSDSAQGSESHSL", "UniProt Q9H2F3": "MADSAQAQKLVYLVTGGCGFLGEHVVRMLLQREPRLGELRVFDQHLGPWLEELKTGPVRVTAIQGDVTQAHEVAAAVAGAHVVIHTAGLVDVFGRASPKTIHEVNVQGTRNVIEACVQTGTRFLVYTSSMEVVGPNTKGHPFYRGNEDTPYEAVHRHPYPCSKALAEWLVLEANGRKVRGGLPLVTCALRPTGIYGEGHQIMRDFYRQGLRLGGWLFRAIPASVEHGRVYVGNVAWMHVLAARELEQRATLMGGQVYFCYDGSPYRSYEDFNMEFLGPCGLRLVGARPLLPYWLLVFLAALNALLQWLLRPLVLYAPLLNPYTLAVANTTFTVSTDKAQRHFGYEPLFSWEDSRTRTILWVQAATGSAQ", "UniProt Q9BQA5": "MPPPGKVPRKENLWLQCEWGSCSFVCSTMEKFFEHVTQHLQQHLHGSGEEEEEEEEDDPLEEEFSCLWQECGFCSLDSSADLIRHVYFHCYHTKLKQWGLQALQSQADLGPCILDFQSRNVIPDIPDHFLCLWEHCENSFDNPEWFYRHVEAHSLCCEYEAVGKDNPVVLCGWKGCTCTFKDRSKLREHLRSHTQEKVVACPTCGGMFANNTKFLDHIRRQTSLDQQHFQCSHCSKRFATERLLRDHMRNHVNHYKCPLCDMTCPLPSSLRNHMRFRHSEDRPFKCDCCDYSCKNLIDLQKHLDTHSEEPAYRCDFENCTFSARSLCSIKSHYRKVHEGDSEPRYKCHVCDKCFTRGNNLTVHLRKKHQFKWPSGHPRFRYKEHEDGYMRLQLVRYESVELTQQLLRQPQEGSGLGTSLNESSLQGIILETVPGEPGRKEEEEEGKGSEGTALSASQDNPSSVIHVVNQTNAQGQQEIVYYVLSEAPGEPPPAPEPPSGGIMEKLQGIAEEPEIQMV", "UniProt Q5SSJ5": "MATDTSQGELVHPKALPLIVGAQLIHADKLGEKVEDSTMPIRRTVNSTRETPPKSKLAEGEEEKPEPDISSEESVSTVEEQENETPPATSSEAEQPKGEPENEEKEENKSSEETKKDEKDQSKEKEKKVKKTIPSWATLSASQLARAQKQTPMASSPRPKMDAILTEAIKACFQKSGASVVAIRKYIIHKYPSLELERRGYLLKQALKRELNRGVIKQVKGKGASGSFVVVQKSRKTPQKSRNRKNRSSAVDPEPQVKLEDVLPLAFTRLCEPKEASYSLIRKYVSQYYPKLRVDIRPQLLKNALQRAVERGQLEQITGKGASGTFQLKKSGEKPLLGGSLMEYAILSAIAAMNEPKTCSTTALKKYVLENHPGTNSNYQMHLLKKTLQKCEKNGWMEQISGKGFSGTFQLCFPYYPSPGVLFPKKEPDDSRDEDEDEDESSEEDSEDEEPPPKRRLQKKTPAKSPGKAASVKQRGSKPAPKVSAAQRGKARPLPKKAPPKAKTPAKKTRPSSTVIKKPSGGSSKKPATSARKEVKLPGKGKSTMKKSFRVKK", "UniProt P07910": "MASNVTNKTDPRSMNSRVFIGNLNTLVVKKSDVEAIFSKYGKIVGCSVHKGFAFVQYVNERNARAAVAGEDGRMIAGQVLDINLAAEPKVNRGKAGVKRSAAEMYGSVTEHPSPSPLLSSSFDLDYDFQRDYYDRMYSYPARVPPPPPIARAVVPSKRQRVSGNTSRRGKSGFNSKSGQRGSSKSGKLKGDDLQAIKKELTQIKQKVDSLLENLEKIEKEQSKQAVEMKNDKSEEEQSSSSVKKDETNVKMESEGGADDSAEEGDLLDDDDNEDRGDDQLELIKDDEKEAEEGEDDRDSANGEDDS", "UniProt P15428": "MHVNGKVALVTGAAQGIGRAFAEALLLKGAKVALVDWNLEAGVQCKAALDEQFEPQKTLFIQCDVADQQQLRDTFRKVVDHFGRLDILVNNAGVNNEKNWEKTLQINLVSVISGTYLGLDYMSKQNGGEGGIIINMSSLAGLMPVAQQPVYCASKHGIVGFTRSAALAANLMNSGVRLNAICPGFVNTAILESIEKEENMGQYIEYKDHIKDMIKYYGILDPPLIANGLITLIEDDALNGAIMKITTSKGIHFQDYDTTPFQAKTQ", "UniProt Q96ED9": "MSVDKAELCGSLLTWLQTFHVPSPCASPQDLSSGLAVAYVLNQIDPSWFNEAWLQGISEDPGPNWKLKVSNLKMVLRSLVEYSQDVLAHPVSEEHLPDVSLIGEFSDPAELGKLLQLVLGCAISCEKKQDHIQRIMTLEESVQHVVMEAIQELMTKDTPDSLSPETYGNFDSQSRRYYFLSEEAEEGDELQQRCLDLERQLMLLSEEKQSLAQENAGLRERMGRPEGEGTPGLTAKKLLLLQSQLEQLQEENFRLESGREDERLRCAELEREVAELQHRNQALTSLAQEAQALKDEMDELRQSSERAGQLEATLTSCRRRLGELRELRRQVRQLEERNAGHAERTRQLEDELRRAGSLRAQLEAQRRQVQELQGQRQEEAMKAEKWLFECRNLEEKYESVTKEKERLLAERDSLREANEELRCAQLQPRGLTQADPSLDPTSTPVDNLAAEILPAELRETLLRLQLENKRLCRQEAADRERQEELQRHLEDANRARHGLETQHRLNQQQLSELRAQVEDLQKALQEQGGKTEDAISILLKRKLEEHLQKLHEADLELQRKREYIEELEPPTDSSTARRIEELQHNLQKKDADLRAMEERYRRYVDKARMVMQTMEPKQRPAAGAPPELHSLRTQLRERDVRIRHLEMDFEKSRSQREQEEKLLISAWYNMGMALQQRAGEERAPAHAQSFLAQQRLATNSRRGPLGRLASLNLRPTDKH", "UniProt Q9NSC5": "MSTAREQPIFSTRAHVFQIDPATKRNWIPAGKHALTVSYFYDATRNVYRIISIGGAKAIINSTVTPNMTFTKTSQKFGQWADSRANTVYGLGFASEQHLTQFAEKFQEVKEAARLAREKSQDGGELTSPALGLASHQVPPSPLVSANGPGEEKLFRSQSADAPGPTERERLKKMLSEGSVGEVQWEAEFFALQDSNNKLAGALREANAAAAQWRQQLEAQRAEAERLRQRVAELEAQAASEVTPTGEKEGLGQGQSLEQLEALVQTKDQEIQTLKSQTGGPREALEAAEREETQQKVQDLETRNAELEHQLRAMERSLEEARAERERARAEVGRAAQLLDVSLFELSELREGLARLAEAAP"},
  "source": "the supplement of paper PMC10849652",
  "experiment_in_all_cases": "log2 fold change, soluble protein after heating vs DMSO (PISA); higher = thermal stabilisation; K562 lysate, 10 uM; active = over 0.2 and 3.5 SD of the protein, either way, in both replicates (recomputed)",
  "key": {"[1]": {"compound": "CNc1nc(-c2ccc3c(N)n[nH]c3c2)cc(N2C[C@@H](C(=O)NC3CCCCC3)CC[C@H]2C)n1", "procedure,_shortened": "(§1)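 Quantification was by TMTpro 16plex LC-MS/MS with equalised channel sums, applied to the supernatant after 21,000xg for 90 min. Samples were crude K562 extract at 1 mg/mL protein in PBS pH 7.4 with 1 mM MgCl2, treated with 10 μM compound for 30 min, heated for 3 min across 48°C-58°C, pooled and brought to 0.5% NP-40 at 4°C. Values are log-two fold changes in thermal stability relative to solvent controls, from duplicates.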"}, "alvocidib": {"compound": "CN1CC[C@H](c2c(O)cc(O)c3c(=O)cc(-c4ccccc4Cl)oc23)[C@H](O)C1 [alvocidib]", "procedure,_shortened": "as §1"}, "defactinib": {"compound": "CNC(=O)c1ccc(Nc2ncc(C(F)(F)F)c(NCc3nccnc3N(C)S(C)(=O)=O)n2)cc1 [defactinib]", "procedure,_shortened": "as §1"}, "encorafenib": {"compound": "COC(=O)N[C@@H](C)CNc1nccc(-c2cn(C(C)C)nc2-c2cc(Cl)cc(NS(C)(=O)=O)c2F)n1 [encorafenib]", "procedure,_shortened": "as §1"}, "[2]": {"compound": "COC(=O)[C@H](CCSC)NC(=O)C1=C(C=C(C=C1)NC[C@H](CS)N)C2=CC=CC=C2", "procedure,_shortened": "as §1"}, "alisertib": {"compound": "COc1cc(Nc2ncc3c(n2)-c2ccc(Cl)cc2C(c2c(F)cccc2OC)=NC3)ccc1C(=O)O [alisertib]", "procedure,_shortened": "as §1"}, "gefitinib": {"compound": "COc1cc2ncnc(Nc3ccc(F)c(Cl)c3)c2cc1OCCCN1CCOCC1 [gefitinib]", "procedure,_shortened": "as §1"}, "[3]": {"compound": "COc1cc2nc(-c3cc(F)ccc3O)nc(N[C@@H]3CNC[C@H]3C(C)(C)O)c2cc1OC", "procedure,_shortened": "as §1"}, "[4]": {"compound": "CNC(=O)C1=CC=CC=C1NC2=NC(=NC=C2Cl)NC3=C(C=C(C=C3)N4CCOCC4)OC", "procedure,_shortened": "as §1"}},
  "note": "The list shows a part of the results.",
  "data": [
    {"target": "HNRNPU isoform 2 (UniProt Q00839)", "values": [
      {"measurement": "log2 fold change", "setting": "[1]", "result": "inactive: -0.035"}
    ]},
    {"target": "HERPUD1 (UniProt Q15011)", "values": [
      {"measurement": "log2 fold change", "setting": "alvocidib", "result": "inactive: -0.068"},
      {"measurement": "log2 fold change", "setting": "defactinib", "result": "inactive: -0.07"},
      {"measurement": "log2 fold change", "setting": "encorafenib", "result": "inactive: -0.077"},
      {"measurement": "log2 fold change", "setting": "[2]", "result": "inactive: 0.01"},
      {"measurement": "log2 fold change", "setting": "alisertib", "result": "inactive: -0.165"},
      {"measurement": "log2 fold change", "setting": "gefitinib", "result": "inactive: 0.028"}
    ]},
    {"target": "HNRNPD (UniProt D6RF44)", "values": [
      {"measurement": "log2 fold change", "setting": "alisertib", "result": "inactive: -0.006"},
      {"measurement": "log2 fold change", "setting": "gefitinib", "result": "inactive: -0.014"}
    ]},
    {"target": "HNRNPL, A0A3B3ITJ4", "values": [
      {"measurement": "log2 fold change", "setting": "[3]", "result": "inactive: 0.032"}
    ]},
    {"target": "HIGD2A (UniProt Q9BW72)", "values": [
      {"measurement": "log2 fold change", "setting": "alvocidib", "result": "inactive: 0.102"},
      {"measurement": "log2 fold change", "setting": "[1]", "result": "inactive: 0.097"},
      {"measurement": "log2 fold change", "setting": "alisertib", "result": "inactive: -0.078"},
      {"measurement": "log2 fold change", "setting": "gefitinib", "result": "inactive: 0.055"}
    ]},
    {"target": "HLA-E (UniProt P13747)", "values": [
      {"measurement": "log2 fold change", "setting": "[4]", "result": "inactive: 0.123"},
      {"measurement": "log2 fold change", "setting": "encorafenib", "result": "inactive: -0.049"},
      {"measurement": "log2 fold change", "setting": "[2]", "result": "inactive: -0.012"}
    ]},
    {"target": "HNRNPM (UniProt M0R019)", "values": [
      {"measurement": "log2 fold change", "setting": "defactinib", "result": "inactive: -0.112"}
    ]},
    {"target": "HSD3B7 (UniProt Q9H2F3)", "values": [
      {"measurement": "log2 fold change", "setting": "alisertib", "result": "inactive: -0.142"},
      {"measurement": "log2 fold change", "setting": "gefitinib", "result": "inactive: -0.059"}
    ]},
    {"target": "HINFP (UniProt Q9BQA5)", "values": [
      {"measurement": "log2 fold change", "setting": "alisertib", "result": "inactive: 0.118"},
      {"measurement": "log2 fold change", "setting": "gefitinib", "result": "inactive: 0.035"}
    ]},
    {"target": "HMGN5 (UniProt Q5JSK9)", "values": [
      {"measurement": "log2 fold change", "setting": "encorafenib", "result": "inactive: 0.055"},
      {"measurement": "log2 fold change", "setting": "[2]", "result": "inactive: -0.111"},
      {"measurement": "log2 fold change", "setting": "alisertib", "result": "inactive: 0.049"},
      {"measurement": "log2 fold change", "setting": "[3]", "result": "inactive: 0.055"},
      {"measurement": "log2 fold change", "setting": "gefitinib", "result": "inactive: 0.063"}
    ]},
    {"target": "HP1BP3 isoform 5 (UniProt Q5SSJ5)", "values": [
      {"measurement": "log2 fold change", "setting": "[4]", "result": "inactive: 0.099"}
    ]},
    {"target": "HNRNPC isoform 2 (UniProt P07910)", "values": [
      {"measurement": "log2 fold change", "setting": "[1]", "result": "inactive: 0.098"}
    ]},
    {"target": "HPGD (UniProt P15428)", "values": [
      {"measurement": "log2 fold change", "setting": "alvocidib", "result": "inactive: -0.09"},
      {"measurement": "log2 fold change", "setting": "[1]", "result": "inactive: 0.196"},
      {"measurement": "log2 fold change", "setting": "encorafenib", "result": "inactive: -0.013"},
      {"measurement": "log2 fold change", "setting": "[2]", "result": "inactive: 0.169"}
    ]},
    {"target": "HOOK2 (UniProt Q96ED9)", "values": [
      {"measurement": "log2 fold change", "setting": "alvocidib", "result": "inactive: 0.175"},
      {"measurement": "log2 fold change", "setting": "[4]", "result": "inactive: 0.145"},
      {"measurement": "log2 fold change", "setting": "[1]", "result": "inactive: 0.268"},
      {"measurement": "log2 fold change", "setting": "alisertib", "result": "inactive: -0.069"},
      {"measurement": "log2 fold change", "setting": "[3]", "result": "inactive: 0.126"},
      {"measurement": "log2 fold change", "setting": "gefitinib", "result": "inactive: -0.021"}
    ]},
    {"target": "HLA-DRA", "values": [
      {"measurement": "log2 fold change", "setting": "encorafenib", "result": "inactive: 0.074"},
      {"measurement": "log2 fold change", "setting": "[2]", "result": "inactive: 0.001"}
    ]},
    {"target": "HOMER3 (UniProt Q9NSC5)", "values": [
      {"measurement": "log2 fold change", "setting": "alvocidib", "result": "inactive: -0.066"},
      {"measurement": "log2 fold change", "setting": "[3]", "result": "inactive: 0.069"}
    ]}
  ]
}
